Laboratory results as given in the supplement of paper PMC10849652.
The other results are listed elsewhere or left out.

By UniProt entry, the sequences of proteins in these tests, tags left out. Where a name states a change or a piece, a line headed by the entry shows the natural chain unless it says otherwise.
UniProt P62304, whole entry, looked up: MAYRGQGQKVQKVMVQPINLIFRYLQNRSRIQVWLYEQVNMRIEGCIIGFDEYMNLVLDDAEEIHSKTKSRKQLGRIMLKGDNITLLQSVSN
UniProt O14508, whole entry, looked up: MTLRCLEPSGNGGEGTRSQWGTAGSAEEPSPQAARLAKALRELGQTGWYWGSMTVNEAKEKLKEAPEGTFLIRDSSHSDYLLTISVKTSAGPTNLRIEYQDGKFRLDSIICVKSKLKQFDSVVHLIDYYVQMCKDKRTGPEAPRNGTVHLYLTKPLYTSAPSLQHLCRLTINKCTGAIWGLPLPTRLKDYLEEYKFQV
UniProt Q9H4I9: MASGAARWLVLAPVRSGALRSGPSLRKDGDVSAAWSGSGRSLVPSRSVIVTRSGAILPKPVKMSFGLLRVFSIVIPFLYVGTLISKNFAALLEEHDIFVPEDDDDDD
UniProt Q15599: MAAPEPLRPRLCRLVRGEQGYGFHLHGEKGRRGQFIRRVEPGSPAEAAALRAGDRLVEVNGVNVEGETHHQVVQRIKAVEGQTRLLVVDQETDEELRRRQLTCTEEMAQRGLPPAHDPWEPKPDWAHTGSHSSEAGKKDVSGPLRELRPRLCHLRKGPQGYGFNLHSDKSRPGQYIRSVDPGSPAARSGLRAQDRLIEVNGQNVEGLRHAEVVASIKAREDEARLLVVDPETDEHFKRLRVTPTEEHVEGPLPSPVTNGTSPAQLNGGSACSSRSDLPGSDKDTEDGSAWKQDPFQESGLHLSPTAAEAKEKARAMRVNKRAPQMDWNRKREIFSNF
UniProt O60271: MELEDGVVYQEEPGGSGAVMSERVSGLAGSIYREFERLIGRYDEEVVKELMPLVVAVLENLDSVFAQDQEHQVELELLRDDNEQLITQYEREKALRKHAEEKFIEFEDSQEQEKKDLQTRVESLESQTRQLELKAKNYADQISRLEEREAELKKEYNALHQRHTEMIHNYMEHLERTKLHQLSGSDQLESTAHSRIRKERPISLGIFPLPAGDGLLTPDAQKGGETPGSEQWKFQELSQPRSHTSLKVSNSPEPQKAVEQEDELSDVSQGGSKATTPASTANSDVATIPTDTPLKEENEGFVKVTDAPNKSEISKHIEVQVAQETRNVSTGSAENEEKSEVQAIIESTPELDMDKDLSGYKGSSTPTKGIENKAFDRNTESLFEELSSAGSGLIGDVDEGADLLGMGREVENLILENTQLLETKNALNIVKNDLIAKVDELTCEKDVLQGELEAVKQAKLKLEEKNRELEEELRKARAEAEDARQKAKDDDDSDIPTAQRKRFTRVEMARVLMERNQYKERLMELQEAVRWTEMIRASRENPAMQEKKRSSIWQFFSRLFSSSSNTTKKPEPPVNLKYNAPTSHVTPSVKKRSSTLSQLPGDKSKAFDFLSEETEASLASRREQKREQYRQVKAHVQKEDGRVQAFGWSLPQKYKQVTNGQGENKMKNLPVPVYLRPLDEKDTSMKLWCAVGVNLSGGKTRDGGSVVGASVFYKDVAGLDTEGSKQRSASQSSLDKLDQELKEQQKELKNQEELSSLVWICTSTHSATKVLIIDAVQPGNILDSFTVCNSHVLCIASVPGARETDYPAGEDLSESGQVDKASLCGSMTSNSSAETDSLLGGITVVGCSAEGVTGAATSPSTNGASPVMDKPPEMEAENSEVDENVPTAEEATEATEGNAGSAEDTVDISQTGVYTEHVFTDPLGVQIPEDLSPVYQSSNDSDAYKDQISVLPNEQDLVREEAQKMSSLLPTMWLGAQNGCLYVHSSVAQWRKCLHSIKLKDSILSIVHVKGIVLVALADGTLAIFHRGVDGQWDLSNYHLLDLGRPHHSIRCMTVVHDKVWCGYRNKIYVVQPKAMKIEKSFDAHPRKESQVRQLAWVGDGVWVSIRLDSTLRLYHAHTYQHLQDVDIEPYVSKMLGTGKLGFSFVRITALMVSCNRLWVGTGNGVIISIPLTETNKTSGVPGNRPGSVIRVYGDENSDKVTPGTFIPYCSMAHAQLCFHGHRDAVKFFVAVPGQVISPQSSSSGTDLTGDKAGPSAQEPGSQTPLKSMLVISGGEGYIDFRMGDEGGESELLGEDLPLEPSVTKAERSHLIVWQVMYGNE
UniProt Q02447: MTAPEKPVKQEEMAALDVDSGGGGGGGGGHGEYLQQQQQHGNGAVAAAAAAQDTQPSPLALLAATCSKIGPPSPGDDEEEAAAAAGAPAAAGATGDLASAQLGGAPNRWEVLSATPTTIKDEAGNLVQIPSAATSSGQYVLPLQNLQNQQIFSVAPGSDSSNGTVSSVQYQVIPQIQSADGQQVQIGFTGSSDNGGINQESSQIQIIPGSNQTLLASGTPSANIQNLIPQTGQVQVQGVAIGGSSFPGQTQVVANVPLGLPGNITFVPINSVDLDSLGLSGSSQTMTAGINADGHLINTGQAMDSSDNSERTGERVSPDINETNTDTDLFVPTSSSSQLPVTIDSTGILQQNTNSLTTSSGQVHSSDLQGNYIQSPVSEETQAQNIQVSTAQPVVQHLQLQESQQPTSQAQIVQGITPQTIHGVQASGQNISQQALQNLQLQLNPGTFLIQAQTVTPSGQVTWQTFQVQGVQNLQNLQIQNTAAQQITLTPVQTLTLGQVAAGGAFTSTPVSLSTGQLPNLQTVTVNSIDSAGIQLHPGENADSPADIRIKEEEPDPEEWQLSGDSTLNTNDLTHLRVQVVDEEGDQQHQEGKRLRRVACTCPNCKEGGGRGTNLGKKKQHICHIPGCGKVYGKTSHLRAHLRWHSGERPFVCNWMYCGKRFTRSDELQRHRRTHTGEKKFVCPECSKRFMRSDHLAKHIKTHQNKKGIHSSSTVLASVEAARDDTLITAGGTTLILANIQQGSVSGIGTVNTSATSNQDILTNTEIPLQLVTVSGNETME
UniProt O60749: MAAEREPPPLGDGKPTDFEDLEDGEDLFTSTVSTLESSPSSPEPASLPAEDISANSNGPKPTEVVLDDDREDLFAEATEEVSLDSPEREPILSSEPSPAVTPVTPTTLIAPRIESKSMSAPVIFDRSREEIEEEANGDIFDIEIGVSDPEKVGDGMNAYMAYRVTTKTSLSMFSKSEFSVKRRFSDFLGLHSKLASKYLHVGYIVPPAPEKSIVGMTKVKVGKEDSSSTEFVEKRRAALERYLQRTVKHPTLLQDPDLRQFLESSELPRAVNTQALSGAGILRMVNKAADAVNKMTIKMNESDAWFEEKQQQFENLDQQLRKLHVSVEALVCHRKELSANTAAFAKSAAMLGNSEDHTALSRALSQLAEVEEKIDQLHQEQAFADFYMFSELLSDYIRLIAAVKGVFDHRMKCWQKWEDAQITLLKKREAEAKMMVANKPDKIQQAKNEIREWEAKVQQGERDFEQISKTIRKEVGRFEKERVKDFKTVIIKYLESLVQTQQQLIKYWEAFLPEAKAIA
UniProt P04179: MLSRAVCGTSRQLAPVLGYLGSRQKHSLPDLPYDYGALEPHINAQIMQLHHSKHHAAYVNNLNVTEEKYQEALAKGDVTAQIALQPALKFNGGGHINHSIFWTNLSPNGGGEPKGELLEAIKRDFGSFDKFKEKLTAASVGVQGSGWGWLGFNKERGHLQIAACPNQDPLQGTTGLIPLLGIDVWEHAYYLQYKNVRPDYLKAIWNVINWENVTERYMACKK
UniProt O76070, whole entry, looked up: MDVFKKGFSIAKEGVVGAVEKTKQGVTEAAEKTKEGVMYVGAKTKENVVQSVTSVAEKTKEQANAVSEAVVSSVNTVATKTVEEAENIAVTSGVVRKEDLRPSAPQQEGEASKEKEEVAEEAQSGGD
UniProt P62306, whole entry, looked up: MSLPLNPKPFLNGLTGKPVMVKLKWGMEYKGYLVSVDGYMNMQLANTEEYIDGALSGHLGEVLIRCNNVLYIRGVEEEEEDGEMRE
UniProt Q9Y5X3: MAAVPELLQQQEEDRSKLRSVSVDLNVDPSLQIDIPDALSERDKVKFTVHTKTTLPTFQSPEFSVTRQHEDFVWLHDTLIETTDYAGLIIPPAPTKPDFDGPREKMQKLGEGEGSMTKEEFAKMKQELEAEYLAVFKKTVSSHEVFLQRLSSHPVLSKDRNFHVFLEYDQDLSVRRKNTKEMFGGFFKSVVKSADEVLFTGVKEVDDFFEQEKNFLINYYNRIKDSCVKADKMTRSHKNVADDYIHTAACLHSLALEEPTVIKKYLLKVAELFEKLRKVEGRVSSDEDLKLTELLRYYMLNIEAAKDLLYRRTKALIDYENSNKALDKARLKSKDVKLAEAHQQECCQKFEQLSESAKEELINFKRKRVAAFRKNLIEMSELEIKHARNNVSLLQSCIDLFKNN
UniProt P51532, whole entry, looked up: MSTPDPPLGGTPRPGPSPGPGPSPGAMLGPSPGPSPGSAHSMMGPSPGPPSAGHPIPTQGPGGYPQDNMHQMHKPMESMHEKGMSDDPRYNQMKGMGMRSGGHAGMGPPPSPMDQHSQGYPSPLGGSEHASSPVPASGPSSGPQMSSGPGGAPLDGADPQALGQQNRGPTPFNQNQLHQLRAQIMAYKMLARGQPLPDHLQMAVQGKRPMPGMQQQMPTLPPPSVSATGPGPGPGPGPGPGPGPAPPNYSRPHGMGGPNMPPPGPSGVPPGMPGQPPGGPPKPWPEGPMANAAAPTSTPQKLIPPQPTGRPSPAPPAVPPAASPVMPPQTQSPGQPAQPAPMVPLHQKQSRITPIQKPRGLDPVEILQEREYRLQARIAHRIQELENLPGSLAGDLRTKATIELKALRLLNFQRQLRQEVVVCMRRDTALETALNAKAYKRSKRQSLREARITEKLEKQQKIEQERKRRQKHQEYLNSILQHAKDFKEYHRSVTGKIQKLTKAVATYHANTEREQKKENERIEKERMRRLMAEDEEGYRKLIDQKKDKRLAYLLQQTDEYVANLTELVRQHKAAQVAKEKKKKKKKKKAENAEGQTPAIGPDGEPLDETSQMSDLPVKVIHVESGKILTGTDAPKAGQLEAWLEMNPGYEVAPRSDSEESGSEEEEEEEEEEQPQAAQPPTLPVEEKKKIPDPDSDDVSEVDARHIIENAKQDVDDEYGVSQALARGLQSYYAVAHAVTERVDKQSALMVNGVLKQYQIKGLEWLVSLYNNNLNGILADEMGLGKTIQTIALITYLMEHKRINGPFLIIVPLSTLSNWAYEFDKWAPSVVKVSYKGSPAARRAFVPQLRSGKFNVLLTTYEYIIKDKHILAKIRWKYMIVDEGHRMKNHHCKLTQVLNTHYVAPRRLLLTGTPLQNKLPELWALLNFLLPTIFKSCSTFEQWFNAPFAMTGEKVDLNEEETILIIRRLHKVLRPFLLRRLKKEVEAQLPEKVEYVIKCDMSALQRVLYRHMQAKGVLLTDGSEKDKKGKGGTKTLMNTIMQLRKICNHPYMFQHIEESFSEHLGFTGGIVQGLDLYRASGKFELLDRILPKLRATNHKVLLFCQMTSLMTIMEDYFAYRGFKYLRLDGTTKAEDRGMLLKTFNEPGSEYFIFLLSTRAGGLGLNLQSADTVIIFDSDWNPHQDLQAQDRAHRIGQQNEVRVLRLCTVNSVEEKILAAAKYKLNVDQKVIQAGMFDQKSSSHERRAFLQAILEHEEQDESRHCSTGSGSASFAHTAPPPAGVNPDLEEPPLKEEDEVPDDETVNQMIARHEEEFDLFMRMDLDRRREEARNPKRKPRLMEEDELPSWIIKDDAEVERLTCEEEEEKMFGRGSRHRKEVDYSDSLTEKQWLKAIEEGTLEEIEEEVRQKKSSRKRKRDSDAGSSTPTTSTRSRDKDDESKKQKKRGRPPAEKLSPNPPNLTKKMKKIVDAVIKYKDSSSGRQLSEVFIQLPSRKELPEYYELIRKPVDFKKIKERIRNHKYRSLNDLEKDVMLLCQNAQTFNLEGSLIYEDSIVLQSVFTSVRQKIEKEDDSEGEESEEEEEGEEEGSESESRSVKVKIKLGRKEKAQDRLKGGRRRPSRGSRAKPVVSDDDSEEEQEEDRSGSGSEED
UniProt Q96BD0: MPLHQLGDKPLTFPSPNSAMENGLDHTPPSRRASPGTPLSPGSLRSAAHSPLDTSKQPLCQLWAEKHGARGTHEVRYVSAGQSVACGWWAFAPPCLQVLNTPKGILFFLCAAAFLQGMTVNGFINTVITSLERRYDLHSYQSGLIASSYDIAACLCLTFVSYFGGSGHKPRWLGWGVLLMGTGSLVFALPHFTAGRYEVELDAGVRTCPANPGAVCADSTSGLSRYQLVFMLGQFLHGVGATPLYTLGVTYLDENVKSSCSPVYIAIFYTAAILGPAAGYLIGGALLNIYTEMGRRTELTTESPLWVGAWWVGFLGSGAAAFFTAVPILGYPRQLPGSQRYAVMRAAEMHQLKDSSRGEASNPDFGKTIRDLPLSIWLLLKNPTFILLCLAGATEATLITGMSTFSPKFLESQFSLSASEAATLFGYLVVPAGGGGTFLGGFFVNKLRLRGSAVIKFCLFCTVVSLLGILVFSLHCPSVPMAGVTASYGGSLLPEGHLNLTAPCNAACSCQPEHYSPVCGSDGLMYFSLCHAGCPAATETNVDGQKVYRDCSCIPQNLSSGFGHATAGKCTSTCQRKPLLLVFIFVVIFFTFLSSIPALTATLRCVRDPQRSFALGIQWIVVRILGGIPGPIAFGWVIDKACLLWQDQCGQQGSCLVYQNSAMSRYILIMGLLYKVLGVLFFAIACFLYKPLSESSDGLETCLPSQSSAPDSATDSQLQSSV

Assays:
Experiment in all cases: log2 fold change, soluble protein after heating vs DMSO (PISA); higher = thermal stabilisation; K562 cells, 10 uM, 30 min; active = over 0.2 and 3.5 SD of the protein, either way, in both replicates (recomputed)
[1] = compound: NC(=O)Nc1cc(-c2cccc(F)c2)sc1C(=O)N[C@H]1CCCNC1
Summary of the method: (§1)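 K562 cells at 2×10^6 cells/mL were treated with 10 μM compound for 30 min. Aliquots were heated for 3 min across 48°C-58°C, pooled, and extracted in PBS with 0.5% NP-40 at 4°C; soluble protein was the supernatant after 21,000xg for 90 min. Soluble protein was quantified by TMTpro 16plex LC-MS/MS with channel sums equalised, and reported as log2 fold change in thermal stability against DMSO controls, with values from duplicates.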

[2] = compound: NC(=O)c1cnc(N[C@@H]2CCCC[C@@H]2N)nc1Nc1cccc(-n2nccn2)c1
Summary of the method: as §1

[3] = compound: NC1(c2ccc(-c3nc4ccn5c(=O)[nH]nc5c4cc3-c3ccccc3)cc2)CCC1
Summary of the method: as §1

[4] = compound: NCC(=O)Nc1ccc(-n2nc(C(F)(F)F)cc2-c2ccc3c(ccc4ccccc43)c2)cc1
Summary of the method: as §1

entinostat = compound: Nc1ccccc1NC(=O)c1ccc(CNC(=O)OCc2cccnc2)cc1 [entinostat]
Summary of the method: as §1

vorinostat = compound: O=C(CCCCCCC(=O)Nc1ccccc1)NO [vorinostat]
Summary of the method: as §1

citarinostat = compound: O=C(CCCCCCNC(=O)c1cnc(N(c2ccccc2)c2ccccc2Cl)nc1)NO [citarinostat]
Summary of the method: as §1

silmitasertib = compound: O=C(O)c1ccc2c(c1)nc(Nc1cccc(Cl)c1)c1ccncc12 [silmitasertib]
Summary of the method: as §1

[5] = compound: O=C1NC(=O)C(c2cnc3ccccn23)=C1c1cn2c3c(cc(F)cc13)CN(C(=O)N1CCCCC1)CC2
Summary of the method: as §1

[6] = compound: c1cc(OCCN2CCCCC2)cc(-c2n[nH]c3ccc(-c4nnc[nH]4)cc23)c1
Summary of the method: as §1

Measured: log2 fold change

SMAD2 (UniProt Q15796)
inactive: [1] -0.184 | [2] -0.064 | [3] 0.005 | [4] -0.039 | entinostat -0.103 | vorinostat -0.051 | citarinostat 0.034 | silmitasertib -0.073 | [5] 0.009 | [6] -0.018

SNRPE (UniProt P62304)
inactive: [1] -0.006 | [2] 0.001 | [3] 0.043 | [4] 0.009 | entinostat -0.046 | vorinostat 0.011 | citarinostat 0.009 | silmitasertib 0.036 | [5] 0.083 | [6] -0.038

SOCS2 (UniProt O14508)
inactive: [1] -0.068 | [2] 0.002 | [3] -0.014 | [4] -0.097 | entinostat -0.009 | vorinostat -0.023 | citarinostat 0.017 | silmitasertib 0.035 | [5] -0.055 | [6] -0.053

SMDT1 (UniProt Q9H4I9)
inactive: [1] -0.062 | [2] 0.032 | [3] -0.061 | [4] -0.039 | entinostat 0.01 | vorinostat -0.038 | citarinostat 0.002 | silmitasertib 0.041 | [5] -0.011 | [6] -0.001

SMC4 (UniProt Q9NTJ3)
inactive: [1] -0.053 | [2] -0.05 | [3] -0.079 | [4] -0.046 | entinostat 0.046 | vorinostat 0.031 | citarinostat 0.048 | silmitasertib 0.082 | [5] -0.007 | [6] -0.043

SLC9A3R2 (UniProt Q15599)
inactive: [1] -0.009 | [2] 0.02 | [3] 0.019 | [4] -0.03 | entinostat -0.057 | vorinostat 0.007 | citarinostat -0.069 | silmitasertib -0.085 | [5] 0.035 | [6] -0.111

SPAG9 (UniProt O60271)
inactive: [1] -0.042 | [2] -0.13 | [3] -0.123 | [4] -0.055 | entinostat 0.034 | vorinostat 0.023 | citarinostat 0.01 | silmitasertib 0.038 | [5] -0.014 | [6] -0.024

SLC7A6OS (UniProt Q96CW6)
inactive: [1] -0.023 | [2] -0.085 | [3] -0.079 | [4] 0.042 | entinostat -0.043 | vorinostat 0.056 | citarinostat 0.098 | silmitasertib 0.06 | [5] -0.036 | [6] -0.037

SND1 (UniProt Q7KZF4)
inactive: [1] 0.181 | [2] 0.112 | [3] 0.423 | [4] 0.135 | entinostat 0.103 | vorinostat -0.039 | citarinostat -0.08 | silmitasertib 0.27 | [5] 0.456 | [6] -0.203

SMC6 isoform 2 (UniProt Q96SB8)
inactive: [1] 0.036 | [2] 0.012 | [3] -0.011 | [4] 0.067 | entinostat 0 | vorinostat -0.2 | citarinostat -0.014 | silmitasertib 0.094 | [5] 0.044 | [6] -0.02

SMARCA5 (UniProt O60264)
inactive: [1] -0.084 | [2] -0.121 | [3] -0.095 | [4] -0.01 | entinostat 0.097 | vorinostat 0.204 | citarinostat -0.094 | silmitasertib 0.028 | [5] -0.034 | [6] 0.03

SP3 (UniProt Q02447)
inactive: [1] 0.15 | [2] -0.011 | [3] -0.033 | [4] 0.025 | entinostat 0.027 | vorinostat -0.026 | citarinostat -0.147 | silmitasertib 0.046 | [5] -0.02 | [6] 0.04

SNX2 (UniProt O60749)
inactive: [1] -0.001 | [2] -0.204 | [3] -0.146 | [4] 0 | entinostat 0.092 | vorinostat 0.093 | citarinostat 0.062 | silmitasertib -0.068 | [5] -0.044 | [6] -0.082

SMIM26, A0A096LP01
inactive: [1] -0.003 | [2] -0.043 | [3] -0.137 | [4] -0.028 | entinostat 0.068 | vorinostat 0.162 | citarinostat 0.126 | silmitasertib 0.032 | [5] 0.017 | [6] -0.001

SNAP23 (UniProt O00161)
inactive: [1] -0.018 | [2] 0.014 | [3] 0.024 | [4] 0.028 | entinostat -0.029 | vorinostat -0.03 | citarinostat -0.015 | silmitasertib -0.007 | [5] 0.019 | [6] -0.06

SP1 (UniProt P08047)
inactive: [1] -0.017 | [2] 0.011 | [3] 0.1 | [4] -0.001 | entinostat -0.005 | vorinostat 0.052 | citarinostat -0.057 | silmitasertib -0.007 | [5] 0.088 | [6] -0.088

SMG1 (UniProt Q96Q15)
inactive: [1] -0.073 | [2] -0.111 | [3] -0.101 | [4] -0.073 | entinostat -0.097 | vorinostat -0.012 | citarinostat 0.024 | silmitasertib 0.142 | [5] 0.013 | [6] -0.187

2 consecutive entries already listed, for reference:
SMIM26, A0A096LP01
inactive: [1] -0.003 | [2] -0.043 | [3] -0.137 | [4] -0.028 | entinostat 0.068 | vorinostat 0.162 | citarinostat 0.126 | silmitasertib 0.032 | [5] 0.017 | [6] -0.001

SNAP23 (UniProt O00161)
inactive: [1] -0.018 | [2] 0.014 | [3] 0.024 | [4] 0.028 | entinostat -0.029 | vorinostat -0.03 | citarinostat -0.015 | silmitasertib -0.007 | [5] 0.019 | [6] -0.06

The listing continues:

SMS (UniProt P52788)
inactive: [1] -0.003 | [2] -0.021 | [3] -0.036 | [4] 0.016 | entinostat -0.014 | vorinostat -0.028 | citarinostat 0.041 | silmitasertib 0.004 | [5] -0.043 | [6] -0.003

SLC9A3R1 (UniProt O14745)
inactive: [1] -0.011 | [2] 0.018 | [3] 0.027 | [4] 0.055 | entinostat -0.046 | vorinostat -0.026 | citarinostat -0.005 | silmitasertib -0.052 | [5] -0.026 | [6] 0.054

SOD2 (UniProt P04179)
inactive: [1] -0.05 | [2] 0.017 | [3] 0.069 | [4] 0.032 | entinostat 0.021 | vorinostat 0.019 | citarinostat 0.082 | silmitasertib -0.005 | [5] -0.04 | [6] -0.01

SORT1 (UniProt Q99523)
inactive: [1] -0.005 | [2] -0.032 | [4] 0.038 | entinostat -0.017 | vorinostat -0.002 | citarinostat 0.073 | silmitasertib 0.006 | [5] 0.004 | [6] -0.139
active: [3] -0.687

SNCG (UniProt O76070)
inactive: [1] 0.035 | [2] -0.001 | [3] 0.024 | [4] 0.015 | entinostat -0.015 | vorinostat -0.006 | citarinostat 0.059 | silmitasertib -0.07 | [5] -0.03 | [6] 0.014

SNRPF (UniProt P62306)
inactive: [1] 0.021 | [2] -0.031 | [3] 0.133 | [4] 0.012 | entinostat 0.038 | vorinostat -0.003 | citarinostat 0.09 | silmitasertib 0.191 | [5] 0.011 | [6] -0.153

SNX5 (UniProt Q9Y5X3)
inactive: [1] -0.022 | [2] -0.275 | [4] -0.037 | entinostat 0.078 | vorinostat 0.108 | citarinostat 0.09 | silmitasertib -0.061 | [5] -0.006 | [6] -0.11
active: [3] -0.332

SPA17 (UniProt Q15506)
inactive: [1] -0.083 | [2] 0.011 | [3] -0.203 | [4] 0.007 | entinostat 0.101 | vorinostat -0.182 | citarinostat -0.046 | silmitasertib -0.009 | [5] -0.034 | [6] 0.111

SMARCA4 (UniProt P51532)
inactive: [1] -0.144 | [2] -0.056 | [3] 0.048 | [4] -0.201 | entinostat 0.012 | vorinostat 0.038 | citarinostat 0.102 | silmitasertib -0.017 | [5] -0.067 | [6] -0.115

SLC7A6 (UniProt Q92536)
inactive: [1] -0.07 | [2] 0.089 | [3] 0.06 | [4] -0.017 | entinostat -0.029 | vorinostat -0.003 | citarinostat 0.026 | silmitasertib 0.007 | [5] -0.135 | [6] -0.049

SLCO4A1 (UniProt Q96BD0)
inactive: [1] 0.034 | [2] 0.006 | [3] 0.065 | [4] -0.058 | entinostat -0.02 | vorinostat -0.004 | citarinostat -0.044 | silmitasertib 0.115 | [5] -0.007 | [6] -0.062

SMNDC1 (UniProt O75940)
inactive: [1] -0.036 | [2] -0.021 | [3] 0.112 | [4] 0.059 | entinostat -0.032 | vorinostat -0.042 | citarinostat -0.009 | silmitasertib 0.018 | [5] 0.027 | [6] -0.073
